No constants are given. Whether binding was seen depends on the method and setting. In cells and extracts the contact can be indirect. Some binding calls cover weakened binding; strength is not graded here. Where a sequence is shown, tags or fusion partners need not be part of it. Each block holds one molecule with its values, some of them ahead of it.
Experiments:
[1] = target: T1, Histone deacetylase 7 (human (endogenous in WI-38)) (UniProt Q8WUI4); experiment: co-IP; WI-38 cells treated with ET-1 (10 nM) for 10 min; supernatants immunoprecipitated with antibodies specific for HDAC7, c-Jun or p300 with protein A beads overnight at 4 °C; Western blotting; also after transfection of HDAC7 siRNA or p300 siRNA for 24 h
T1 sequence: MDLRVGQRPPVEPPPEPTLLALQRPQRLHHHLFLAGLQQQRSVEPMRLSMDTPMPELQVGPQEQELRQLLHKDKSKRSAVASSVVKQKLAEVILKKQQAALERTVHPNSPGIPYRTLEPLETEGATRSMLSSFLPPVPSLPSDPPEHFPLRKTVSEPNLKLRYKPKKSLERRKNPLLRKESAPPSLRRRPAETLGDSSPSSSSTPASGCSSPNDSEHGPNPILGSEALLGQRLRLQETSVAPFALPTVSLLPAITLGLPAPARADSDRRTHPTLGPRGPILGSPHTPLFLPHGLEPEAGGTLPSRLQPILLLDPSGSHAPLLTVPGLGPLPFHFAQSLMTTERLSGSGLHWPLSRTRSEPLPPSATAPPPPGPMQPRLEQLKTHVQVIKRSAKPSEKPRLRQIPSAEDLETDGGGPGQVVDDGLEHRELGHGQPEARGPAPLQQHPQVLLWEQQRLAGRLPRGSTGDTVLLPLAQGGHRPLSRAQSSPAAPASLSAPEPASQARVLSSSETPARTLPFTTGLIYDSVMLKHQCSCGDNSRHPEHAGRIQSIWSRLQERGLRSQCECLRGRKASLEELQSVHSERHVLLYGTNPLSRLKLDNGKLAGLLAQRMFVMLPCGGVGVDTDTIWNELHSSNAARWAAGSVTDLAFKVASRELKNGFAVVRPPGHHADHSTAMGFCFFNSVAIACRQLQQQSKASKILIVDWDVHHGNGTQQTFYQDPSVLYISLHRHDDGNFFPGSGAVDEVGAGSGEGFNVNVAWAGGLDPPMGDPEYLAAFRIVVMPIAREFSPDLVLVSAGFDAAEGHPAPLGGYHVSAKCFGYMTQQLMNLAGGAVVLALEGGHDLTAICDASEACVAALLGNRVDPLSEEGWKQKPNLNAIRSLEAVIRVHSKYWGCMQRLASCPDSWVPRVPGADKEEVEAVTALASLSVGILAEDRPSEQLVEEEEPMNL

Amino acid sequences for entries named in this document (tags omitted).
UniProt P05412: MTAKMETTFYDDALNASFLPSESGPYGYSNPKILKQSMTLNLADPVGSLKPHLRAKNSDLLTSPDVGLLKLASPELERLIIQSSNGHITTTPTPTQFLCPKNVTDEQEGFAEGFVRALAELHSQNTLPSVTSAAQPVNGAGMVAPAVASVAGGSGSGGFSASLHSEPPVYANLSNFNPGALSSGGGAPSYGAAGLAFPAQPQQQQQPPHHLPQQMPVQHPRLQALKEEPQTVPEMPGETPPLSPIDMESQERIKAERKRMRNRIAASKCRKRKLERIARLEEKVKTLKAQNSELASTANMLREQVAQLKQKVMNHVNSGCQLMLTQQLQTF
UniProt Q09472: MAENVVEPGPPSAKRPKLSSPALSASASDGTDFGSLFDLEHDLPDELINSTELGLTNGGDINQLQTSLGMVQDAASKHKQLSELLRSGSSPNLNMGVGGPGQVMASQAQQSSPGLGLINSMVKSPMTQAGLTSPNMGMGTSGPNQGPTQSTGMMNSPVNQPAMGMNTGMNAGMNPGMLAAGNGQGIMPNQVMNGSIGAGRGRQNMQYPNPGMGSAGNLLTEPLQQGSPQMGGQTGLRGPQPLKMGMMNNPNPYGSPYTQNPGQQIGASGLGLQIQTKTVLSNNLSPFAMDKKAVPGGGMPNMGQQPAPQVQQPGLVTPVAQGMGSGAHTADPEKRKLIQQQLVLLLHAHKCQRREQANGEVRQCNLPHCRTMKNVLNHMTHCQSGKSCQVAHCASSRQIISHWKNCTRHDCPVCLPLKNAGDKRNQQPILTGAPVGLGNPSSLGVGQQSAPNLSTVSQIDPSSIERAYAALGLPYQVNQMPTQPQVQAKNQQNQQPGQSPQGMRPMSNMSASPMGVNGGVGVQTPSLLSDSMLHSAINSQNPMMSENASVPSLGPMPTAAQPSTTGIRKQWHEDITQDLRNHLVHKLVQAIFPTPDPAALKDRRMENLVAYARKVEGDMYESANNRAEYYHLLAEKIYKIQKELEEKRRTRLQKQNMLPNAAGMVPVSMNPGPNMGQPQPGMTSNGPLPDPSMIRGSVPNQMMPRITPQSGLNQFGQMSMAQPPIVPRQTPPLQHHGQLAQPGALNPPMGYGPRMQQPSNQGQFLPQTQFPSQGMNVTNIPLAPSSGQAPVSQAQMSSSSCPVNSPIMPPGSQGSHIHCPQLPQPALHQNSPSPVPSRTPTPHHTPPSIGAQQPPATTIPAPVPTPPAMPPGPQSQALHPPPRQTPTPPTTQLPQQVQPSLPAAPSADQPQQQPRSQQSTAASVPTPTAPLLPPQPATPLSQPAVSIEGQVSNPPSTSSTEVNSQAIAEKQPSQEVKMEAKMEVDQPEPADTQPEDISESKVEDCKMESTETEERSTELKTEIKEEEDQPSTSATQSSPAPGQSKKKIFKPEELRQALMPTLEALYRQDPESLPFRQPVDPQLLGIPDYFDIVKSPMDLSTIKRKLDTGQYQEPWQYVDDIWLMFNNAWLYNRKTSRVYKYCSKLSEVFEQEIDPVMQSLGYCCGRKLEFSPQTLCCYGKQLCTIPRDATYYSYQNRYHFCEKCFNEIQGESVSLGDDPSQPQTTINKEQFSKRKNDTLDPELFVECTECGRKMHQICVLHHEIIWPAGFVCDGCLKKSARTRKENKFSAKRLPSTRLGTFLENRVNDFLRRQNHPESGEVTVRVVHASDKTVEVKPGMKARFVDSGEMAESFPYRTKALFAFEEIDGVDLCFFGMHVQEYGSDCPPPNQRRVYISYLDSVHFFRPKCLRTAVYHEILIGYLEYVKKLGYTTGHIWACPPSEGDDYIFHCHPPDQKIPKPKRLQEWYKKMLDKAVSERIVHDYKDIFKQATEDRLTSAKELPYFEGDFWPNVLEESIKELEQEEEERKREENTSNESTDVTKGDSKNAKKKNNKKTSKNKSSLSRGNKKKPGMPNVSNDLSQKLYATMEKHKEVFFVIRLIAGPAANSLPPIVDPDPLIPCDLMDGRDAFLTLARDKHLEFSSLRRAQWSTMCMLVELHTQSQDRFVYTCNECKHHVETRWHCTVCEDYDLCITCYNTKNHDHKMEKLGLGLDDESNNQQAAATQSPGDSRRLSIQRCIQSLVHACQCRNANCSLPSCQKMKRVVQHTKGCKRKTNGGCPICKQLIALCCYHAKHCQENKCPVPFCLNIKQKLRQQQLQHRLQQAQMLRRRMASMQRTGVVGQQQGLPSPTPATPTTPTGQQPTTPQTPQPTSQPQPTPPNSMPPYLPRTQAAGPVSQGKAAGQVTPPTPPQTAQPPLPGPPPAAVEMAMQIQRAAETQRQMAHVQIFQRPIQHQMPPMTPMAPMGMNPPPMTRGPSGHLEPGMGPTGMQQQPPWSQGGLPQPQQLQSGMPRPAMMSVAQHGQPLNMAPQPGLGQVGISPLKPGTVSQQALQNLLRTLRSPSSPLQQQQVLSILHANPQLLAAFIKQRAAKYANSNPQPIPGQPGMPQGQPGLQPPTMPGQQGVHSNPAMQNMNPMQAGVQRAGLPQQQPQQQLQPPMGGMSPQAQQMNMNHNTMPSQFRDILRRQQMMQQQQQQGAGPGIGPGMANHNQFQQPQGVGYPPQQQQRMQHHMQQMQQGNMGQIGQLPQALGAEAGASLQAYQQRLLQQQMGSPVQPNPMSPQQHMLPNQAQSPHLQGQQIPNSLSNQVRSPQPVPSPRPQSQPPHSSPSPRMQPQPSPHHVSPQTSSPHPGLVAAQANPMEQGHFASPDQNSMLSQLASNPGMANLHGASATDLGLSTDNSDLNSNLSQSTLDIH

[2] = target: c-Jun (human (endogenous in WI-38)) (UniProt P05412); experiment: as above

binding [1]: binds
Molecule: p300 (from UniProt Q09472 1-2414)

binding [2]: binds
B1: Histone deacetylase 7 (protein, UniProt Q8WUI4 1-952)
chain: T1 sequence
